Source: PubChem BioAssay AID1259308 (NCATS, 2017)

Aim: 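Knock-downs that increase output of a recombinant reporter protein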 (primary screen)
Cell system: human HEK293 embryonic kidney cells stably expressing firefly luciferase (HEK-CMV-Luc2-Hygro)
Knock-down reagent: single siRNA against human genes, 0.8 pmol siRNA per well
Time to read-out: 72 h
Detection: 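Reporter luminescence and viable-cell signal on separate replicate plates, given as percent of non-targeting control and median/MAD z-scores, plus per-cell luciferase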
Reading the numbers: total luciferase, z-score and total luciferase, % of control: higher = more reporter protein produced; luciferase per cell, z-score: higher = more reporter output per viable cell; viable cells, % of control: higher = more viable cells
Active means: 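Active when the median/MAD z-score for overall luciferase is greater than 3; a gene was taken forward for validation with new siRNAs if at least two of its three siRNAs passed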
Meaning of the calls: active = raised luciferase; inactive = no rise
The whole screen tested about 59,000 reagents; shown is a random part of them. About 1,510 of all reagents (2.6%) count as active. 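Calls use total luciferase alone and ignore viability, so some active siRNAs may act by altering cell number.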 Unmarked entries are inactive. Reagents against one gene are numbered here.

| Target gene | reagent | total luciferase, z-score | total luciferase, % of control | luciferase per cell, z-score | viable cells, % of control |
| --- | --- | --- | --- | --- | --- |
| LY96 | 1 | 1.36 | 109 | 0.653 | 103 |
| LY96 | 2 | 0.377 | 89.4 | -0.168 | 104 |
| LY96 | 3 | -0.968 | 62.6 | -0.922 | 89.2 |
| FRMD8 | 1 | -0.276 | 76.4 | -0.436 | 95.8 |
| FRMD8 | 2 | 0.416 | 90.2 | -0.506 | 115 |
| FRMD8 | 3 | 0.76 | 97 | 0.00813 | 108 |
| SUDS3 | 1 | -0.115 | 79.6 | -1.2 | 122 |
| SUDS3 | 2 | -1.11 | 59.8 | -2.03 | 114 |
| SUDS3 | 3 | -1.09 | 60.2 | -1.53 | 101 |
| NAP1L1 | 1 | 0.744 | 96.7 | 0.597 | 92.3 |
| NAP1L1 | 2 | -0.738 | 67.2 | -0.481 | 85.2 |
| NAP1L1 | 3 | -0.535 | 71.3 | -1.04 | 105 |
| GLIS3 | 1 | -1.34 | 55.3 | 0.596 | 52.8 |
| GLIS3 | 2 | 0.0538 | 83 | -0.213 | 98 |
| GLIS3 | 3 | -0.755 | 66.9 | -1.29 | 105 |
| SLC51A | 1 | 0.091 | 83.7 | -0.127 | 96.7 |
| SLC51A | 2 | -0.171 | 78.5 | -0.0249 | 88.3 |
| SLC51A | 3 | -0.000635 | 81.9 | 1.21 | 66.6 |
| RPS6KA3 | 1 | -0.896 | 64.1 | -0.682 | 85.7 |
| RPS6KA3 | 2 | -0.194 | 78 | -0.828 | 108 |
| RPS6KA3 | 3 | -1.06 | 60.8 | -1.65 | 105 |

Laid out differently: results already given.
Target gene | reagent | total luciferase, z-score | total luciferase, % of control | luciferase per cell, z-score | viable cells, % of control
GLIS3 | 1 | -1.34 | 55.3 | 0.596 | 52.8
GLIS3 | 2 | 0.0538 | 83 | -0.213 | 98

The list goes on:
| Target gene | reagent | total luciferase, z-score | total luciferase, % of control | luciferase per cell, z-score | viable cells, % of control |
| --- | --- | --- | --- | --- | --- |
| ZBTB4 | 1 | 1.23 | 106 | 0.912 | 93.4 |
| ZBTB4 | 2 | 0.35 | 88.8 | 0.0367 | 98.3 |
| ZBTB4 | 3 | -0.237 | 77.2 | -0.441 | 96.9 |
| ALDH2 | 1 | -0.14 | 79.1 | -0.00412 | 88.5 |
| ALDH2 | 2 | -0.161 | 78.7 | -0.456 | 99.1 |
| ALDH2 | 3 | -0.0957 | 80 | -0.488 | 102 |
| TMTC1 | 1 | 1.31 | 108 | 1.57 | 79.8 |
| TMTC1 | 2 | -0.757 | 66.8 | -0.16 | 77.9 |
| TMTC1 | 3 | -0.273 | 76.5 | 0.441 | 76.1 |
| EFCAB5 | 1 | -1.22 | 57.6 | -0.626 | 76 |
| EFCAB5 | 2 | 0.495 | 91.7 | 0.404 | 92.1 |
| EFCAB5 | 3 | 0.562 | 93.1 | 0.49 | 91.4 |
| SRCIN1 | 1 | 4.26 (active) | 167 | 2.68 | 91.9 |
| SRCIN1 | 2 | 1.38 | 109 | 0.654 | 103 |
| SRCIN1 | 3 | 0.174 | 85.3 | -0.4 | 106 |
| IGFL2-AS1 | 1 | -0.0774 | 80.3 | 0.358 | 81.7 |
| IGFL2-AS1 | 2 | 2.29 | 127 | 3.07 | 63.5 |
| IGFL2-AS1 | 3 | -0.0589 | 80.7 | -0.343 | 98.7 |
